The whole screen tested about 310,000 compounds, of which about 17,000 (5.5%) were called active. Inconclusive results, whose numbers are uncertain, are shown with a selection of clear calls. Calls follow the shape of the dose curve; as a rule, active = well fitted inhibition curve with a large enough effect; inconclusive = small, poorly fitted or top-dose-only effect, or effect the other way; inactive = no such curve, though single readings can be large or run the other way. A potency beside an inconclusive call is a rough fit, not a confirmed value.
What follows are compounds tested against Nuclear receptor ROR-gamma (Mus musculus) (UniProt P51450) (assay: qHTS for inhibitors of ROR gamma transcriptional activity). Conditions: Drosophila S2 Gal4-RORgamma UAS-luciferase reporter, 20 h; series mostly up to 53.6 µM.
In short: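 Stable Schneider cell line, Gal4 DNA-binding domain fused to ROR gamma, UAS-luciferase. Cmpd 1 hr RT → CuSO4 700 uM final → 20 hr RT → luciferase reagent 10 min → luminescence.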
Also: nearly all actives have a fitted effect of over 60% in size.
Potency is read from the fitted curve at half-maximal effect.

Chains of the proteins cited; added tags and fusions are not shown. Lines headed by an entry give the natural chain unless they say otherwise; changes in a name come on top.
UniProt P51450: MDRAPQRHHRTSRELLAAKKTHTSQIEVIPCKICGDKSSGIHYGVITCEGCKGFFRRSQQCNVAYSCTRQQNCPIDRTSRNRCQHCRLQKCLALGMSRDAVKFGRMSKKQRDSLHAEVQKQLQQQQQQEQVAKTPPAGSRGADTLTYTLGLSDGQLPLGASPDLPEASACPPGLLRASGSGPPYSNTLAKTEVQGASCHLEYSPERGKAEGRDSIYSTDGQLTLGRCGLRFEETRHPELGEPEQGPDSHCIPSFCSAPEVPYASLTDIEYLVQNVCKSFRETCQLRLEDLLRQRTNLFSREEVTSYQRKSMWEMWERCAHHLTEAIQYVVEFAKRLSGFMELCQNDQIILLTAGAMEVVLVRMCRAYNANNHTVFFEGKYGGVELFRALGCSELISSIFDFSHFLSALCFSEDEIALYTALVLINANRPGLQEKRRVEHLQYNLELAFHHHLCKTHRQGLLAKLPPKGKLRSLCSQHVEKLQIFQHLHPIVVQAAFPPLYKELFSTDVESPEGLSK

SMILES	Potency
N#Cc1ccc(CN2CCC3(CC2)CCN(C(=O)c2cnccn2)CC3)cc1	inactive
CCn1cc(/C=C/C(=O)Nc2ccc(C)cc2Br)cn1	inconclusive: 35.5 µM [activator, single point]
Cc1ccc(C)c(NC(=S)NCc2ccc3[nH]c4c(c3c2)CCCC4)c1	active: 2 µM
COCc1c(C(=O)N/N=C/c2c[nH]c3ccccc23)nnn1-c1nonc1N	inconclusive: 2.82 µM [activator, full curve, poor fit]
COc1ccc(NC(=O)CSc2nnc(NC(C)=O)s2)c([N+](=O)[O-])c1	inactive
CC(=O)c1cnc(Nc2nc(C)c3ccc(C)cc3n2)nc1C	inconclusive: 2.24 µM [inhibitor, full curve, poor fit]
COc1ccc(/C=C\C(=O)NCC(=O)N/N=C/c2cccc(OC)c2O)cc1	active: 1.58 µM
O=C(CN1C(=O)/C(=C\c2ccco2)SC1=S)Nc1ccc(O)cc1C(=O)O	inactive
CCn1c(-c2cc(-c3ccccc3)sc2N)n[nH]c1=S	active: 3.98 µM
N#Cc1cccc(NC(=O)N2CC[C@@]3(CCCN(C(=O)c4cnccn4)C3)C2)c1	inactive
Cc1cc(C)cc(-n2c(C)cc(C(=S)N3CCOCC3)c2C)c1	active: 3.16 µM
Cc1cc(=O)n2c3c(sc2n1)C(=O)N(Cc1ccccc1)C3=O	inactive
C=CCc1cccc(/C=N/NC(=O)C(=O)Nc2ccc(C)cc2)c1O	active: 2.24 µM
CCn1cc(CN2CCCC(C(=O)Nc3cccc(-c4cc5ccccc5[nH]4)c3)C2)cn1 (centres undefined)	inactive
CCOC(=O)c1c(NC(=O)CSc2nnc(C)c(=O)[nH]2)sc2c1CCCC2	inactive
COc1ccc(N2CCN(CCC3Oc4cc([N+](=O)[O-])ccc4NC3=O)CC2)cc1 (centres undefined)	inconclusive: 11.2 µM [activator, partial curve]
CC1C(=O)Nc2ccccc2N1C(=O)c1ccc(O)cc1 (centres undefined)	inactive
COc1ccccc1CNC(=S)NC1CCCC1	active: 5.62 µM
C[C@@H]1C=CC(=O)O[C@@H]1c1ccc(C(F)(F)F)cc1	inconclusive: 22.4 µM [inhibitor, single point]
Cc1cccnc1NC(=O)c1c(O)c2cccc3c2n(c1=O)CCC3	inconclusive: 14.1 µM [inhibitor, partial curve]
COc1ccc(CNc2ncnc3sccc23)cc1	inconclusive: 2.82 µM [activator, partial curve]
O=C(c1ccc(N2CCCC2=O)cc1)N1CCN(c2ccc(Cl)cc2)CC1	inconclusive: 20 µM [activator, single point]
O=C1C=C(NCCN2CCOCC2)C(=O)c2cnccc21	active: 10 µM
NNC(=O)c1oc2nc(-c3ccc(Cl)cc3)cc(-c3ccccc3)c2c1N	inactive
Cc1cc(C(=O)COC(=O)c2ccccc2NCCO)c(C)n1CC1CCCO1 (centres undefined)	active: 0.794 µM
Cc1ccc2oc(Nc3nc(C)c(C)c(C)n3)nc2c1	inconclusive: 1.26 µM [inhibitor, full curve, poor fit]
COc1cc(O)c(C(CC(=O)N2CCCC(C)C2)c2cc(OC)c(OC)c(OC)c2)c(OC)c1 (centres undefined)	inactive

As entered above:
C[C@@H]1C=CC(=O)O[C@@H]1c1ccc(C(F)(F)F)cc1 – Potency: inconclusive: 22.4 µM [inhibitor, single point]
COc1ccccc1CNC(=S)NC1CCCC1 – Potency: active: 5.62 µM

Later entries:

SMILES	Potency
Cc1cc(C)c(C)c(S(=O)(=O)N2CCN(C(=O)CCc3nc4ccccc4c(=O)[nH]3)CC2)c1C	inconclusive: 14.1 µM [activator, single point]
C/C(=N\NC(=O)c1cc(-c2cccc([N+](=O)[O-])c2)n[nH]1)c1ccccc1O	active: 3.16 µM
CCOC(=O)CC(=O)CSc1nc2c(c(C)c1C#N)CCC2	inconclusive: 12.6 µM [inhibitor, single point]
COC(=O)c1cc(=O)n(-c2ccccc2)c(=Nc2ccccc2)s1	inconclusive: 25.1 µM [inhibitor, single point]
COC1c2ccccc2C(=O)N1Cc1ccc(F)cc1 (centres undefined)	inactive
CC(C)Cn1c(-c2ccccc2)nc(=S)c2c1CCCC2	active: 20 µM
COCCn1c(=O)c(-c2cc(F)cc(F)c2)nc2cnc(N3CCOCC3)nc21	inactive
CC1Cc2ccccc2N1C(=O)c1ccc(N2CCCC2)c([N+](=O)[O-])c1 (centres undefined)	inconclusive: 15.8 µM [activator, partial curve]
CCCc1ccc2oc(C(=O)N(C)Cc3nccs3)c(C)c2c1	inconclusive: 22.4 µM [activator, single point]
CCNC(=O)CCc1nc(-c2ccc(C(C)(C)C)cc2)no1	active: 0.0447 µM
O=C(c1cccc(F)c1)N1CCC[C@@]2(CCN(c3ccccc3)C2)C1	inconclusive: 8.91 µM [inhibitor, single point]
CCOC(=O)c1cnc(SCc2ccc(C(C)(C)C)cc2)nc1N	inconclusive: 35.5 µM [activator, single point]
COc1cc(NC(=O)CCC(=O)Nc2ccc3nc(N4CCOCC4)cc(C)c3c2)cc(OC)c1OC	inconclusive: 11.2 µM [activator, partial curve]
Cc1ccc(S(=O)(=O)CNC(=S)c2cccc(Cl)c2)cc1	active: 22.4 µM
COc1ccc(-c2nonc2NC(=O)c2oc3ccc(F)cc3c2C)cc1OC	inactive
COc1ccc(S(=O)(=O)Nc2cccnc2)c(C)c1C	inactive
O=P(O)(O)OC(CO)CO	inactive
CCN(CC)CCNC(=O)Cc1c(C(=O)O)n(CC)c2ccccc12	inconclusive: 5.01 µM [activator, single point]
CCC(C)NC(=O)c1ccc(CSCc2cccc(F)c2)o1 (centres undefined)	inconclusive: 17.8 µM [activator, single point]
Cc1cccc(NC(=S)NCc2ccc3c(c2)OCO3)c1	active: 11.2 µM
COc1ccc2oc(=O)c(C(=O)Nc3ccccc3O)cc2c1	active: 8.91 µM
COc1ccc(C2C(C#N)=C(SC)NC3=C2C(=O)CC(C)(C)C3)cc1 (centres undefined)	inconclusive: 15.8 µM [activator, single point]
CCN1CCN(CCNC(=O)c2ccc3nc(-c4cccc(C)c4)c(-c4cccc(C)c4)nc3c2)CC1	inconclusive: 12.6 µM [inhibitor, single point]
Cc1ccc(-c2nn(-c3ccccc3)cc2/C=C2\SC(=S)N(CCCCCC(=O)O)C2=O)o1	inconclusive: 7.94 µM [activator, partial curve]
O=C(COc1c(F)c(F)c(C(F)(F)F)c(F)c1F)Nc1ccc(N2CCOCC2)c(Cl)c1	inconclusive: 22.4 µM [activator, single point]
CCOC(=O)c1cc2c(nc1NC(=S)Nc1ccccc1)CC(C)(C)OC2	active: 2.82 µM
O=C(NC1=NCCS1)c1cc(-c2cccc(Br)c2)nc2ccccc12	active: 7.08 µM

In the list so far, these have a halogen.
SMILES	Potency
CCn1cc(/C=C/C(=O)Nc2ccc(C)cc2Br)cn1	inconclusive: 35.5 µM [activator, single point]
C[C@@H]1C=CC(=O)O[C@@H]1c1ccc(C(F)(F)F)cc1	inconclusive: 22.4 µM [inhibitor, single point]
O=C(c1ccc(N2CCCC2=O)cc1)N1CCN(c2ccc(Cl)cc2)CC1	inconclusive: 20 µM [activator, single point]
NNC(=O)c1oc2nc(-c3ccc(Cl)cc3)cc(-c3ccccc3)c2c1N	inactive
COC1c2ccccc2C(=O)N1Cc1ccc(F)cc1 (centres undefined)	inactive
COCCn1c(=O)c(-c2cc(F)cc(F)c2)nc2cnc(N3CCOCC3)nc21	inactive
O=C(c1cccc(F)c1)N1CCC[C@@]2(CCN(c3ccccc3)C2)C1	inconclusive: 8.91 µM [inhibitor, single point]
Cc1ccc(S(=O)(=O)CNC(=S)c2cccc(Cl)c2)cc1	active: 22.4 µM
COc1ccc(-c2nonc2NC(=O)c2oc3ccc(F)cc3c2C)cc1OC	inactive
CCC(C)NC(=O)c1ccc(CSCc2cccc(F)c2)o1 (centres undefined)	inconclusive: 17.8 µM [activator, single point]
O=C(COc1c(F)c(F)c(C(F)(F)F)c(F)c1F)Nc1ccc(N2CCOCC2)c(Cl)c1	inconclusive: 22.4 µM [activator, single point]
O=C(NC1=NCCS1)c1cc(-c2cccc(Br)c2)nc2ccccc12	active: 7.08 µM

Next part

SMILES	Potency
Cc1ccc(N=Cc2sc(O)c3ccccc23)c(C)c1	inconclusive: 12.6 µM [inhibitor, single point]
COc1ccc2[nH]c(=O)c(CN(Cc3ccco3)C(=O)c3ccccc3)cc2c1	inconclusive: 7.94 µM [activator, partial curve]
CC1CC(C)CN(C(=O)CNS(=O)(=O)c2ccc(Br)s2)C1 (centres undefined)	inactive
CCn1c(=O)c(C(=O)NCCCc2ccccc2)c(O)c2ccccc21	inconclusive: 35.5 µM [inhibitor, single point]
N#Cc1c(Cl)nsc1NC(=O)c1ccccc1	active: 8.91 µM
Cc1n[nH]c(C)c1CCCCOc1ccccc1F	inconclusive: 25.1 µM [inhibitor, single point]
CC(C)c1ccccc1NC(=S)NCc1ccccc1F	inconclusive: 1.26 µM [inhibitor, single point]
C/C(Cl)=C/Cc1c(C)[nH]c2c(ccc3ccccc32)c1=O	inconclusive: 25.1 µM [inhibitor, single point]
Cc1ccc(C(=O)N/N=C\C=C\c2ccc(Br)cc2)cn1	active: 0.562 µM
CCn1c(-c2ccccc2)c[nH]c1=S	active: 1.12 µM
Cc1ccc2c(c1)cc1c(=O)n(CC(=O)NCCCc3ccccc3)nc(C)n12	inconclusive: 12.6 µM [inhibitor, single point]
COc1ccc(CCC(=O)N2CCc3ccccc32)cc1	inactive
Cc1nn(CCc2n[nH]c(=S)n2C2CCCCC2)c(C)c1Br	active: 5.62 µM
CN1CCN(c2ccccc2NC(=O)c2cccs2)CC1	inactive
O=C(CSc1nccc(-c2cccs2)n1)Nc1cccc(Cl)c1	inconclusive: 20 µM [activator, partial curve, poor fit]
CCOC(=O)C(=Cc1ccccc1)C(=O)OCC	active: 12.6 µM
CC1C(=O)C(C)C(c2cccs2)NC1c1cccs1 (centres undefined)	inactive
N#CC1=C2SCN(c3ccccc3)CN2C(=O)CC1c1c(Cl)cccc1Cl (centres undefined)	active: 15.8 µM
CCN(CC)CCOC(=O)c1c(C)oc2ccc(OC)cc12	inconclusive: 10 µM [inhibitor, partial curve, poor fit]
Cc1cccc2c(C(=O)N3CCCCC3)cc(-c3ccccc3)nc12	inconclusive: 22.4 µM [activator, partial curve, poor fit]
C=CCNC(=S)NC(=O)c1csc([N+](=O)[O-])c1	inconclusive: 3.55 µM [inhibitor, full curve]
CNCc1ccccc1Sc1cc(O)ccc1O	active: 15.8 µM
Cc1ccc(-n2c(C)nc3c(cnn3-c3ccc(F)cc3)c2=O)cc1C	inconclusive: 31.6 µM [inhibitor, single point]
O=C(Nc1cccc(S(=O)(=O)N2CCCCC2)c1)c1ccc2ncsc2c1	inactive
CC(=O)Cc1nsc(NC(=O)c2cn(-c3ccccc3)nc2-c2ccc(Br)cc2)n1	inconclusive: 1.58 µM [activator, partial curve]
